{"source": "ChEMBL document CHEMBL1125846", "about": "“Reevaluating equilibrium and kinetic binding parameters for lipophilic drugs based on a structural model for drug interaction with biological membranes” (J Med Chem, 1991)", "settings": "octanol/water"}
{"smiles": "COC(=O)C1=C(C)NC(C)=C(C(=O)OC)C1c1ccccc1[N+](=O)[O-]", "note": "[NIFEDIPINE]", "values": [{"measurement": "Partition coefficient", "value": 3000}]}
